Measurements reported in PubChem BioAssay AID1224826 (NIAID, 2016).
Aim: 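Genes that change LPS-induced Tnf promoter activity in mouse macrophages when knocked down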 (primary screen). Cell system: RAW264.7 G9 macrophages from mouse bearing reporters for p65 (GFP) and the Tnf promoter (mCherry). Reagent: siRNA pool against mouse genes, 100 nM. Duration: 16 h of LPS stimulation, after 2 days of siRNA transfection. Conditions: bacterial lipopolysaccharide (Salmonella minnesota R595), 10 ng/ml. Measurement: 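Imaged Tnf reporter mCherry in nuclei, minus background, normalised per plate to the median and expressed as robust z-scores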. Scale: Tnf reporter robust z-score: higher = stronger Tnf promoter reporter signal after LPS. Hit rule: 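Called active when robust z-score is at most -1.3, matching the median of the Tlr4 knock-down control, or over 3; control wells and wells with under 50 cells never active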. Meaning of the calls: active = Tnf reporter clearly lowered or raised; inactive = no clear change in Tnf reporter.
Here is one part, drawn at random, of about 17,000 reagents tested. About 1,110 of all reagents (6.6%) were called active. 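Active means lowered or raised reporter signal; replicate intensities are raw and not normalised per plate.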 Not all columns of the deposit are shown. No sequences are given here.

gene knocked down	Tnf reporter robust z-score	fewer than 50 cells in well	outcome
Spata20	3.1	enough cells in well	active
Bloc1s4	-0.37	enough cells in well	inactive
Or51f1e	-0.63	enough cells in well	inactive
Defa-rs2	0.8	enough cells in well	inactive
Ttll8	2.16	enough cells in well	inactive
Or52ae9	0.11	enough cells in well	inactive
Fras1	-0.6	enough cells in well	inactive
Zfp329	1.01	enough cells in well	inactive
Ccdc71	-0.69	enough cells in well	inactive
Fmn2	1.99	enough cells in well	inactive
1810030O07Rik	-0.24	enough cells in well	inactive
Cldn9	-0.86	enough cells in well	inactive
Glrx	-0.77	enough cells in well	inactive

The list goes on, starting with the last 2 of the part before.
gene knocked down	Tnf reporter robust z-score	fewer than 50 cells in well	outcome
Cldn9	-0.86	enough cells in well	inactive
Glrx	-0.77	enough cells in well	inactive
Apob	0.68	enough cells in well	inactive
Mtcl1	-0.95	enough cells in well	inactive
Cabcoco1	0.68	enough cells in well	inactive
Dmap1	1.33	enough cells in well	inactive
Fbp1	0.64	enough cells in well	inactive
Tagln3	-1.68	enough cells in well	active
E130006D01Rik	4.31	enough cells in well	active
Pdx1	-0.79	enough cells in well	inactive
Gatd3a	-0.64	enough cells in well	inactive
Gm6740	-0.84	enough cells in well	inactive
Nckap1l	1.71	enough cells in well	inactive
